Results taken from US7927581B2 (Factor 1A, LLC, priority 2001, dated 2011).

Assay: general procedure: Fmoc solid-phase peptide synthesis; 1,3-bis-(aminomethyl)-benzene trityl NovaSyn TGT resin (diaminotrityl resin)
Conditions: whole synthesis, scale of the general procedure 3.39 g resin (measured substitution=0.59 mmol)

Substance: H2N-Leu-Pro-Cys-Asp-Tyr-Tyr-Gly-Thr-Cys-Bip-Asp-CO—NHCH2C6H4CH2NH2
- final purity (method not given): 98-100%
